Reference: publication PMC5515574
These are yes or no findings as the source states them, for the method shown. A result given as binding can be weak or reduced; the word gives no strength. Sequences can lack the tags named with a protein.

Assays:
[1] = molecular target: wild-type yeast αβ-tubulin with a His6 tag fused to the C-terminus of β-tubulin (yeast (S. cerevisiae)); test: fluorescence imaging of microtubule decoration in vitro; wild-type or T238V yeast microtubules grown in 1 mM GTP in the presence of 50 nM Bim1-GFP; fluorescence intensity along growing microtubules; both purified
[2] = molecular target: mutant T238V yeast αβ-tubulin (T238V in Tub2p, β-tubulin) (yeast (S. cerevisiae)); test: as above

B1: Bim1-GFP (protein, UniProt P40013 1-344)
chain: MSAGIGESRTELLTWLNGLLNLNYKKIEECGTGAAYCQIMDSIYGDLPMNRVKFNATAEYEFQTNYKILQSCFSRHGIEKTVYVDKLIRCKFQDNLEFLQWLKKHWIRHKDESVYDPDARRKYRPIITNNSATKPRTVSNPTTAKRSSSTGTGSAMSGGLATRHSSLGINGSRKTSVTQGQLVAIQAELTKSQETIGSLNEEIEQYKGTVSTLEIEREFYFNKLRDIEILVHTTQDLINEGVYKFNDETITGHGNGNGGALLRFVKKVESILYATAEGFEMNDGEDELNDKNLGEHGTVPNQGGYANSNGEVNGNEGSNHDVIMQNDEGEVGVSNNLIIDEETF
- binding [1]: binds
- binding [2]: binds
